# Reference: the supplement of paper PMC10849652
# By UniProt entry, the sequences of proteins in these tests, tags left out. Where a name states a change or a piece, a line headed by the entry shows the natural chain unless it says otherwise.
# UniProt O60763: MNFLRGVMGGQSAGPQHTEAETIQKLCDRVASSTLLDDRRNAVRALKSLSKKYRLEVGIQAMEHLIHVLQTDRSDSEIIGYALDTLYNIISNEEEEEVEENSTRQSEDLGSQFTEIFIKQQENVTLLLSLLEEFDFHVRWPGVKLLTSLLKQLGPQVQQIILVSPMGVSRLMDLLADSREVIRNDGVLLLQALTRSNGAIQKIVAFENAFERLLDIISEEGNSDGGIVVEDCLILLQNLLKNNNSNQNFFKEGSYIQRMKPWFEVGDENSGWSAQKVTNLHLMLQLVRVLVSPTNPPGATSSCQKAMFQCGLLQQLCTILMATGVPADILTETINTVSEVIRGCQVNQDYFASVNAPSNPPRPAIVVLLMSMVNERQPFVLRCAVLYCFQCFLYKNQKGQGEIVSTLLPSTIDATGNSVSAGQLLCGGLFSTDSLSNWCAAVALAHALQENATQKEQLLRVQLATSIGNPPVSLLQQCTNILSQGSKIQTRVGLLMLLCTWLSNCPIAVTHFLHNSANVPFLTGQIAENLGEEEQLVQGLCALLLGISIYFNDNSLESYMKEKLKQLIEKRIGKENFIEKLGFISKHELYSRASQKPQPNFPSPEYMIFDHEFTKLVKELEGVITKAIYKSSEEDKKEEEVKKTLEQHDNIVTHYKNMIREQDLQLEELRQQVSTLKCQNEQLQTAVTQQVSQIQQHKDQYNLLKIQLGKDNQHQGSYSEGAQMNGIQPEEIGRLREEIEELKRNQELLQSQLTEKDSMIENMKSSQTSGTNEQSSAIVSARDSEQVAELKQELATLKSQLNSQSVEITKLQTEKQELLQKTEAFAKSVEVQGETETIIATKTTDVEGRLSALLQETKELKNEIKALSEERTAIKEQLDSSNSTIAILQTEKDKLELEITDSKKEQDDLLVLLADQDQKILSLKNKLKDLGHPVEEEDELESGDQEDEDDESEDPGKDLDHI
# UniProt Q9NWZ5: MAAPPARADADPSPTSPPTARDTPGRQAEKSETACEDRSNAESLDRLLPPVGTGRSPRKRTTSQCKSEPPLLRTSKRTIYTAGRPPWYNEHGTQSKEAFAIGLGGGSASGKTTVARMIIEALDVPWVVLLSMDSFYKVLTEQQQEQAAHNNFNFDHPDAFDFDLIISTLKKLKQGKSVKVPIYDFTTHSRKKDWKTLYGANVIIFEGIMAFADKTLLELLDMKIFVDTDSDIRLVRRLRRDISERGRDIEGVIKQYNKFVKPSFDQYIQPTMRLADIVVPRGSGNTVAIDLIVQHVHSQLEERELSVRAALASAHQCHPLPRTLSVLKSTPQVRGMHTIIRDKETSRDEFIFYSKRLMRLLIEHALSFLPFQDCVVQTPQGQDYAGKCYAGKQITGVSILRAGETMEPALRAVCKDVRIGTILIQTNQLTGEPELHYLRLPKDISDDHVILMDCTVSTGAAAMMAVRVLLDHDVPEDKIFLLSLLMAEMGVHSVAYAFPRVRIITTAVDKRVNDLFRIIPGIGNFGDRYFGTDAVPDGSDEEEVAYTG
# UniProt Q96RL1: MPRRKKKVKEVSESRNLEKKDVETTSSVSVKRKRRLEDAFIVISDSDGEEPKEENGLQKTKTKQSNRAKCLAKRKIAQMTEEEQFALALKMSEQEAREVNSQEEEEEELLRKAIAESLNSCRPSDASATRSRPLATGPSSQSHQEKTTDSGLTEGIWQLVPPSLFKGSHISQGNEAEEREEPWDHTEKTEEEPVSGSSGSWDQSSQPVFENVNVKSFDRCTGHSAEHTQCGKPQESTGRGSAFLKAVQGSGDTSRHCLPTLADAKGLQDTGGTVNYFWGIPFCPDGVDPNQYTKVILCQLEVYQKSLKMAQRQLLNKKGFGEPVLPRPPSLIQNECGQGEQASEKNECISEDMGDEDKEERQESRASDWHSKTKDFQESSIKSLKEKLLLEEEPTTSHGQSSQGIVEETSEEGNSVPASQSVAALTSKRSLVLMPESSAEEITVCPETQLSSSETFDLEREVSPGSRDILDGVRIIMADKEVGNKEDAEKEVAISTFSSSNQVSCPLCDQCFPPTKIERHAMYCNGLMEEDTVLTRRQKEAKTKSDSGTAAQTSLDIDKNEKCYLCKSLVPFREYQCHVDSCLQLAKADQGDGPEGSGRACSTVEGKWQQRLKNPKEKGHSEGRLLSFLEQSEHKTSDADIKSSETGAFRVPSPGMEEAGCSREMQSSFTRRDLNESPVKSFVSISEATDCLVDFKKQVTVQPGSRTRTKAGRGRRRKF
# UniProt A6NIH7: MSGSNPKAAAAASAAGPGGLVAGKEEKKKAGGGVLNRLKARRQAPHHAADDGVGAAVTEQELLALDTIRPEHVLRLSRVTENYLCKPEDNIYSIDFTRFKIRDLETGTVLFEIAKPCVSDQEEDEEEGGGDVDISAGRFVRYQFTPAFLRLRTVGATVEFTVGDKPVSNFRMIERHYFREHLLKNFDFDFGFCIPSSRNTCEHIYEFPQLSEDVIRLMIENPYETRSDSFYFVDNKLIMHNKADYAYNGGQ
# UniProt Q9Y277: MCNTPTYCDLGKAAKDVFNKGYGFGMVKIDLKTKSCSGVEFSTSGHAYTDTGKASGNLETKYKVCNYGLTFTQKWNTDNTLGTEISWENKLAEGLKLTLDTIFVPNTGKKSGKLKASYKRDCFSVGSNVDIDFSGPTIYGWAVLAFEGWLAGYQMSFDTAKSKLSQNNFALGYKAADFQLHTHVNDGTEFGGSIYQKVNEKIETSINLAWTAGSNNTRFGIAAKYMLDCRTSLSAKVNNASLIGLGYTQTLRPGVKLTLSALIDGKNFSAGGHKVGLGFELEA
# UniProt Q9H1C4: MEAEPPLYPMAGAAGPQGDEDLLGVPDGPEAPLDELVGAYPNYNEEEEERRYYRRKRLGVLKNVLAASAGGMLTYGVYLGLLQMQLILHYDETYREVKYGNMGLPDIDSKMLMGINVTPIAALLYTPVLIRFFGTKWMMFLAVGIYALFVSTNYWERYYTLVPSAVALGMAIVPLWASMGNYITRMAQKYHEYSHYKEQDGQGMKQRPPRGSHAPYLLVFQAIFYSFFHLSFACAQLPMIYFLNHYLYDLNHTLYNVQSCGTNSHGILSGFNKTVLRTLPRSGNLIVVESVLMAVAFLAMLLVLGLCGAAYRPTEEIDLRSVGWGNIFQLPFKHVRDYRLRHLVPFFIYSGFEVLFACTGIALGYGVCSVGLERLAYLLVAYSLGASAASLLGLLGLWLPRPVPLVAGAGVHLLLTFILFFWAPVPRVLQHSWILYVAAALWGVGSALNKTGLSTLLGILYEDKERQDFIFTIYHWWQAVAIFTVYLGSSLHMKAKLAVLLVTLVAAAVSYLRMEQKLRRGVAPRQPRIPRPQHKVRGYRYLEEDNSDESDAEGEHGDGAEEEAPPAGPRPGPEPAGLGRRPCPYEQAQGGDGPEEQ
# UniProt O14957: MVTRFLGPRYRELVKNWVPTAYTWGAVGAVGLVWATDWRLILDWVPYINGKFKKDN
# UniProt P11172: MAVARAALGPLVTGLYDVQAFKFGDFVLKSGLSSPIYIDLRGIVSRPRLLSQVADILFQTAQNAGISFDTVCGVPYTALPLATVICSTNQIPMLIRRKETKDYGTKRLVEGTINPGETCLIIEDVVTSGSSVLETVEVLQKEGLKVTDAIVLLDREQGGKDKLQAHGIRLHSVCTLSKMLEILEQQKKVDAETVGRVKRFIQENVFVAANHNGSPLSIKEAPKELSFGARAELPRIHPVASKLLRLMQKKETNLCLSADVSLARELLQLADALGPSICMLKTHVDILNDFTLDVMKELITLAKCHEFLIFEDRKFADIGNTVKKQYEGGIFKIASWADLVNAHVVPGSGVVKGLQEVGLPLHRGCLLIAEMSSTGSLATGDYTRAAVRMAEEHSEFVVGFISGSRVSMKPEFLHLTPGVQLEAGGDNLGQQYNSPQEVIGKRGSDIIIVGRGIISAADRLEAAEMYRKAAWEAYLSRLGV
# UniProt Q9BZM5, whole entry, looked up: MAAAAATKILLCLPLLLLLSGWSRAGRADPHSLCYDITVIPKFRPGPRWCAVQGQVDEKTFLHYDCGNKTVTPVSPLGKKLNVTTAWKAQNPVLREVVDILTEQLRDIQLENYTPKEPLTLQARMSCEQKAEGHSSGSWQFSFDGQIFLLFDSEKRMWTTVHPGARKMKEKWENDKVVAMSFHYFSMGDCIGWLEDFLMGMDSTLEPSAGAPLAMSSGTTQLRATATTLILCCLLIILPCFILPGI
# UniProt Q9BRT2: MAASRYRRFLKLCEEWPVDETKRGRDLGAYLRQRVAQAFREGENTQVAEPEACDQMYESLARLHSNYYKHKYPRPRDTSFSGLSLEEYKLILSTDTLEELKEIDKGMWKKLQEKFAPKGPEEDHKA
# UniProt Q9H3U1: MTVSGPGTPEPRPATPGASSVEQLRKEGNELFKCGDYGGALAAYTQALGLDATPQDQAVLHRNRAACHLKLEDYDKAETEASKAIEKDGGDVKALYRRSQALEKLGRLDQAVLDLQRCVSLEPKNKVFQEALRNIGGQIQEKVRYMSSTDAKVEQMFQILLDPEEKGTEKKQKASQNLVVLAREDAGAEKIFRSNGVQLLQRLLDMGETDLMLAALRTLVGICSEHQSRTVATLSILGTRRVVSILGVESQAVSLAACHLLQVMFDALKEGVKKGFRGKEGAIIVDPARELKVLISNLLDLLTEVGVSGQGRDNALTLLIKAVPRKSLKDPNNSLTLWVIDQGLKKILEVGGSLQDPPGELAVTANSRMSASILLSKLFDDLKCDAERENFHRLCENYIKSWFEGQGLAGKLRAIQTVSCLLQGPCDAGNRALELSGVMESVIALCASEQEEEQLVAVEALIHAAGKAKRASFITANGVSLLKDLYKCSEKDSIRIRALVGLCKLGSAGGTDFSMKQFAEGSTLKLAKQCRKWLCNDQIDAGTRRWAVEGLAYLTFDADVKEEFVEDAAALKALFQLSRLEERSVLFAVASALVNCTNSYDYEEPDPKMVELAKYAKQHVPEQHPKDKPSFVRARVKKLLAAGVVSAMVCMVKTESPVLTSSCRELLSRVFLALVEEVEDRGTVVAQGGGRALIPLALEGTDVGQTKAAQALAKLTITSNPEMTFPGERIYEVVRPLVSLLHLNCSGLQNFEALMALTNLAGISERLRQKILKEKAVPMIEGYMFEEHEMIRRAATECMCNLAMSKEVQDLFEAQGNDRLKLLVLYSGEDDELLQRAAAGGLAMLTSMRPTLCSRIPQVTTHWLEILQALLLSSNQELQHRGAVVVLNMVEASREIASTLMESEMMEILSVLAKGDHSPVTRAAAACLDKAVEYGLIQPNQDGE
# UniProt Q96K76: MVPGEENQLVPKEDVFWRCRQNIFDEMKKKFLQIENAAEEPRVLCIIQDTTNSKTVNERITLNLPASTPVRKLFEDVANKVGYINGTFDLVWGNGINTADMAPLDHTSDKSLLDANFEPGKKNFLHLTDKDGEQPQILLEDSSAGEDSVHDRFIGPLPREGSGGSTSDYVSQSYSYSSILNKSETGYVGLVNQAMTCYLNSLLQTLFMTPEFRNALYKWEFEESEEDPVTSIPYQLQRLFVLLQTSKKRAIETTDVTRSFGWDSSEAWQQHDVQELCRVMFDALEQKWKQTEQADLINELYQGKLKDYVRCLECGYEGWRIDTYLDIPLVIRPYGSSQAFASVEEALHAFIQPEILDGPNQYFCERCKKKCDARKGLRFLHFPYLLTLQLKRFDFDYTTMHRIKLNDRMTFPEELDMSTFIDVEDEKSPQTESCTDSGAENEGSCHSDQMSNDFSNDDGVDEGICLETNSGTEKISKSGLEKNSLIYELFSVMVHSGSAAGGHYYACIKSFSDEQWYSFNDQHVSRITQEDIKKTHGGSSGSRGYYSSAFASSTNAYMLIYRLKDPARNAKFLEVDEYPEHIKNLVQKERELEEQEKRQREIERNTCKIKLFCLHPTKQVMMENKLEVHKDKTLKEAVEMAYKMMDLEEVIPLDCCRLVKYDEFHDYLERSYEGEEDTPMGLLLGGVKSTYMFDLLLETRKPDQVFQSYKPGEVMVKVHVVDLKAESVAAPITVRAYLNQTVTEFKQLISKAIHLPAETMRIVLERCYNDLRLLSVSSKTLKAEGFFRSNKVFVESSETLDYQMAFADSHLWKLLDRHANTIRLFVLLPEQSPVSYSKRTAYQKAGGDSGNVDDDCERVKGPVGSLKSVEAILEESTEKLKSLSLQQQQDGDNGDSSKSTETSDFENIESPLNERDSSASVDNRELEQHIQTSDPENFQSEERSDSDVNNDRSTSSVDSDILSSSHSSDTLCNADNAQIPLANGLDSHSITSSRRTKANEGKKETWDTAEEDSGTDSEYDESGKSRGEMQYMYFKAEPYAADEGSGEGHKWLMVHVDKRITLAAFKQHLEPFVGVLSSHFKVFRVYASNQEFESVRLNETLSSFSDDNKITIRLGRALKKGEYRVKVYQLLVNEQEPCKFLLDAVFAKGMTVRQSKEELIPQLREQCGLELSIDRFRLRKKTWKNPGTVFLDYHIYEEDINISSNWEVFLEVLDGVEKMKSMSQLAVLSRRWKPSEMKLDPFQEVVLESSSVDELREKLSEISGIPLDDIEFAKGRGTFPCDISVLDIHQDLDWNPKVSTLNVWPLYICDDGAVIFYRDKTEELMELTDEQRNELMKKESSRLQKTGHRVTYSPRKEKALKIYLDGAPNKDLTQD
# The other results are listed elsewhere or left out.
# Compound: Cc1cc(Nc2cc(CN3CCOCC3)c3nc(C)c(Cc4ccc(Cl)cc4F)n3n2)n[nH]1 [gandotinib]
# Test: log2 fold change, soluble protein after heating vs DMSO (PISA); higher = thermal stabilisation; K562 lysate, 10 uM; active = over 0.2 and 3.5 SD of the protein, either way, in both replicates (recomputed)
# How it was run: (§1)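 The values are log-two fold changes in thermal stability compared with solvent controls and come from duplicates. They were obtained by TMTpro 16plex LC-MS/MS, with channel sums equalised, on the supernatant after 21,000xg for 90 min. That supernatant came from crude K562 extract at 1 mg/mL protein treated with 10 μM compound for 30 min, heated for 3 min across 48°C-58°C, pooled and brought to 0.5% NP-40 at 4°C.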
row,Target,log2 fold change
1,USP34 (UniProt Q70CQ2),inactive: -0.122
2,URI1 isoform 4 (UniProt O94763),inactive: 0.179
3,USO1 isoform 2 (UniProt O60763),inactive: -0.023
4,UTP18 (UniProt Q9Y5J1),inactive: -0.055
5,ULBP1 (UniProt Q9BZM6),inactive: 0.049
6,UQCRH (UniProt P07919),inactive: 0.039
7,UCKL1 (UniProt Q9NWZ5),inactive: -0.013
8,UIMC1 (UniProt Q96RL1),inactive: 0.034
9,UNC119B (UniProt A6NIH7),inactive: 0.075
10,VDAC3 (UniProt Q9Y277),inactive: 0.042
11,UNC93B1 (UniProt Q9H1C4),inactive: 0.039
12,USP14 (UniProt P54578),inactive: -0.024
13,UQCR11 (UniProt O14957),inactive: 0
14,UMPS (UniProt P11172),inactive: -0.058
15,VAPB (UniProt O95292),inactive: 0.045
16,ULBP2 (UniProt Q9BZM5),inactive: 0.039
17,UQCC2 (UniProt Q9BRT2),inactive: -0.091
18,UNC45A (UniProt Q9H3U1),inactive: -0.111
19,USP47 isoform 4 (UniProt Q96K76),inactive: -0.057

# Compound: Cc1cc(Nc2cc(N3CCN(C)CC3)nc(Sc3ccc(NC(=O)C4CC4)cc3)n2)n[nH]1 [tozasertib]
# Test: as above
# How it was run: as §1
row,Target,log2 fold change
1,UQCRC1 (UniProt P31930),inactive: 0.01
2,VDAC2 (UniProt Q5JSD1),inactive: -0.101
3,USO1 (UniProt O60763),inactive: 0.038
4,ULK3 isoform 4 (UniProt Q6PHR2),inactive: 0.059
5,USP1 (UniProt O94782),inactive: 0.01
6,VCP (UniProt P55072),inactive: -0.014
7,USP48 (UniProt Q86UV5),inactive: 0.035
8,UQCRFS1 (UniProt P47985),inactive: 0.012
9,VASP (UniProt P50552),inactive: 0.019
10,UROS (UniProt P10746),inactive: -0.008
11,UGP2 (UniProt Q16851),inactive: -0.028
12,UVRAG (UniProt Q9P2Y5),inactive: 0.037
13,UNC5B (UniProt Q8IZJ1),inactive: 0.053
14,USP11 (UniProt P51784),inactive: 0
15,USP34 (UniProt Q70CQ2),inactive: 0.011
16,URI1 isoform 4 (UniProt O94763),inactive: 0.029
17,USO1 isoform 2 (UniProt O60763),inactive: 0

row,Target,log2 fold change
1,UTP18 (UniProt Q9Y5J1),inactive: 0.074
2,ULBP1 (UniProt Q9BZM6),inactive: 0.008
3,UQCRH (UniProt P07919),inactive: 0
4,UCKL1 (UniProt Q9NWZ5),inactive: -0.076
5,UIMC1 (UniProt Q96RL1),inactive: -0.018
6,UNC119B (UniProt A6NIH7),inactive: -0.056
7,VDAC3 (UniProt Q9Y277),inactive: -0.015
8,UNC93B1 (UniProt Q9H1C4),inactive: 0.106
9,USP14 (UniProt P54578),inactive: 0.014
10,UQCR11 (UniProt O14957),inactive: -0.02
11,UMPS (UniProt P11172),inactive: -0.023
12,VAPB (UniProt O95292),inactive: -0.002
13,ULBP2 (UniProt Q9BZM5),inactive: 0.034
14,UQCC2 (UniProt Q9BRT2),inactive: -0.015
15,UNC45A (UniProt Q9H3U1),inactive: 0
16,USP47 isoform 4 (UniProt Q96K76),inactive: -0.006

# Compound: Cc1ccc(-n2nc(C(C)(C)C)cc2NC(=O)Nc2ccc(OCCN3CCOCC3)c3ccccc23)cc1 [doramapimod]
# Test: as above
# How it was run: as §1
row,Target,log2 fold change
1,UQCRC1 (UniProt P31930),inactive: 0.02
2,VDAC2 (UniProt Q5JSD1),inactive: -0.143
3,USO1 (UniProt O60763),inactive: 0.054
4,ULK3 isoform 4 (UniProt Q6PHR2),inactive: -0.15
5,USP1 (UniProt O94782),inactive: 0.021
6,VCP (UniProt P55072),inactive: 0.001
7,USP48 (UniProt Q86UV5),inactive: -0.181
8,UQCRFS1 (UniProt P47985),inactive: -0.061
9,VASP (UniProt P50552),inactive: -0.004
10,UROS (UniProt P10746),inactive: 0.008
11,UGP2 (UniProt Q16851),inactive: -0.027
12,UVRAG (UniProt Q9P2Y5),inactive: 0.019
13,UNC5B (UniProt Q8IZJ1),inactive: -0.026
14,USP11 (UniProt P51784),inactive: 0.032
15,USP34 (UniProt Q70CQ2),inactive: 0.01
16,URI1 isoform 4 (UniProt O94763),inactive: 0.029
17,USO1 isoform 2 (UniProt O60763),inactive: 0.054

row,Target,log2 fold change
1,UTP18 (UniProt Q9Y5J1),inactive: -0.025
2,ULBP1 (UniProt Q9BZM6),inactive: 0.057
3,UQCRH (UniProt P07919),inactive: -0.021
4,UCKL1 (UniProt Q9NWZ5),inactive: 0.014
5,UIMC1 (UniProt Q96RL1),inactive: -0.004
6,UNC119B (UniProt A6NIH7),inactive: -0.007
7,VDAC3 (UniProt Q9Y277),inactive: -0.028
8,UNC93B1 (UniProt Q9H1C4),inactive: -0.132
9,USP14 (UniProt P54578),inactive: -0.006
10,UQCR11 (UniProt O14957),inactive: 0.016
11,UMPS (UniProt P11172),inactive: 0.027
12,VAPB (UniProt O95292),inactive: 0.036
13,ULBP2 (UniProt Q9BZM5),inactive: 0.002
14,UQCC2 (UniProt Q9BRT2),inactive: 0.014
15,UNC45A (UniProt Q9H3U1),inactive: 0.027
16,USP47 isoform 4 (UniProt Q96K76),inactive: -0.002
